Patent US20220401589A1, “PRE-TARGETING IMAGING AGENTS” (Eli Lilly and Company, priority 2019, published 2022)
Further values from the same series stand in other lists.

Assay: Dynamic PET-CT imaging, tracer uptake in brain, muscle and bone
Format: in vivo, Male CD-1 mice
Method: PET-CT imaging of [^18F]—N-(4-(1,2,4,5-tetrazin-3-yl)benzyl)-4-fluorobenzamide
A Siemens Inveon® Multimodality Scanner (Siemens, Germany) is used for micro PET/CT imaging. Male CD-1 (6-week-old, ˜30 g) mice are anesthetized with 3% isoflurane/97% oxygen and placed on the bed of the scanner. The mice are administered [^18F]—N-(4-(1,2,4,5-tetrazin-3-yl)benzyl)-4-fluorobenzamide via a bolus intravenous tail vein injection (˜[…] in a total volume of 200 μL saline). A total of six (four 60 min and two 90 min) dynamic PET scans are conducted, followed by a short high-resolution CT scan for anatomical registration. PET images are generated for each minute of the acquisition time. Uptake of the tracer in the brain, muscle, and bone are determined by visually drawing regions of interest (ROIs) based on the fused PET/CT images and the corresponding activity values are determined using the Inveon® Research Workplace software. All values are represented as % injected dose per gram (% ID/g).
Bone uptake throughout the scan period remained low, consistent with an absence of defluorination for this tracer. Results of the 90 min scans are similar to the 60 min scan results with peak brain uptake observed at 3.4% ID/g at 2.5 min post injection followed by an immediate wash out to 0.6% ID/g by 59.5 min. Residual uptake is also observed throughout the body of the mouse. Time activity curves are generated for [^18F]—N-(4-(1,2,4,5-tetrazin-3-yl)benzyl)-4-fluorobenzamide in CD-1 male mice (n=4). Data is shown in graphical format in FIGS. 1A and 1B and in tabular format below.

[1] = 90-minute PET scan, time 59.5 min
[2] = 90-minute PET scan, time 60.5 min
[3] = 90-minute PET scan, time 61.5 min
[4] = 90-minute PET scan, time 62.5 min
[5] = 90-minute PET scan, time 63.5 min
[6] = 90-minute PET scan, time 64.5 min
[7] = 90-minute PET scan, time 65.5 min
[8] = 90-minute PET scan, time 66.5 min
[9] = 90-minute PET scan, time 67.5 min
[10] = 90-minute PET scan, time 68.5 min
[11] = 90-minute PET scan, time 69.5 min
[12] = 90-minute PET scan, time 70.5 min
[13] = 90-minute PET scan, time 71.5 min
[14] = 90-minute PET scan, time 72.5 min
[15] = 90-minute PET scan, time 73.5 min
[16] = 90-minute PET scan, time 74.5 min
[17] = 90-minute PET scan, time 75.5 min
[18] = 90-minute PET scan, time 76.5 min
[19] = 90-minute PET scan, time 77.5 min
[20] = 90-minute PET scan, time 78.5 min
[21] = 90-minute PET scan, time 79.5 min
[22] = 90-minute PET scan, time 80.5 min
[23] = 90-minute PET scan, time 81.5 min
[24] = 90-minute PET scan, time 82.5 min
[25] = 90-minute PET scan, time 83.5 min
[26] = 90-minute PET scan, time 84.5 min
[27] = 90-minute PET scan, time 85.5 min
[28] = 90-minute PET scan, time 86.5 min
[29] = 90-minute PET scan, time 87.5 min
[30] = 90-minute PET scan, time 88.5 min
[31] = 90-minute PET scan, time 89.4 min
[32] = 60 minute PET scan, time 0.5 min
[33] = 60 minute PET scan, time 1.5 min
[34] = 60 minute PET scan, time 34.5 min
[35] = 60 minute PET scan, time 35.5 min
[36] = 60 minute PET scan, time 36.5 min
[37] = 60 minute PET scan, time 37.5 min
[38] = 60 minute PET scan, time 38.5 min
[39] = 60 minute PET scan, time 39.5 min
[40] = 60 minute PET scan, time 40.5 min
[41] = 60 minute PET scan, time 41.5 min
[42] = 60 minute PET scan, time 42.5 min
[43] = 60 minute PET scan, time 43.5 min
[44] = 60 minute PET scan, time 44.5 min
[45] = 60 minute PET scan, time 45.5 min
[46] = 60 minute PET scan, time 46.5 min
[47] = 60 minute PET scan, time 47.5 min
[48] = 60 minute PET scan, time 48.5 min
[49] = 60 minute PET scan, time 49.5 min
[50] = 60 minute PET scan, time 50.5 min
[51] = 60 minute PET scan, time 51.5 min
[52] = 60 minute PET scan, time 52.5 min
[53] = 60 minute PET scan, time 53.5 min
[54] = 60 minute PET scan, time 54.5 min
[55] = 60 minute PET scan, time 55.5 min
[56] = 60 minute PET scan, time 56.5 min
[57] = 60 minute PET scan, time 57.5 min
[58] = 60 minute PET scan, time 58.5 min
[59] = 60 minute PET scan, time 59.5 min

O=C(NCc1ccc(-c2nncnn2)cc1)c1ccc([18F])cc1 [[^18F]—N-(4-(1,2,4,5-tetrazin-3-yl)benzyl)-4-fluorobenzamide]
Muscle Mean (90-minute PET scan, time 58.5 min): 0.67 % ID/g
Bone Mean [1]: 0.58 % ID/g
Brain Mean [1]: 0.62 % ID/g
Muscle Mean [1]: 0.63 % ID/g
Bone Mean [2]: 0.70 % ID/g
Brain Mean [2]: 0.62 % ID/g
Muscle Mean [2]: 0.63 % ID/g
Bone Mean [3]: 0.76 % ID/g
Brain Mean [3]: 0.62 % ID/g
Muscle Mean [3]: 0.65 % ID/g
Bone Mean [4]: 0.79 % ID/g
Brain Mean [4]: 0.62 % ID/g
Muscle Mean [4]: 0.65 % ID/g
Bone Mean [5]: 0.79 % ID/g
Brain Mean [5]: 0.62 % ID/g
Muscle Mean [5]: 0.69 % ID/g
Bone Mean [6]: 0.65 % ID/g
Brain Mean [6]: 0.62 % ID/g
Muscle Mean [6]: 0.57 % ID/g
Bone Mean [7]: 0.66 % ID/g
Brain Mean [7]: 0.62 % ID/g
Muscle Mean [7]: 0.63 % ID/g
Bone Mean [8]: 0.79 % ID/g
Brain Mean [8]: 0.62 % ID/g
Muscle Mean [8]: 0.69 % ID/g
Bone Mean [9]: 0.89 % ID/g
Brain Mean [9]: 0.63 % ID/g
Muscle Mean [9]: 0.70 % ID/g
Bone Mean [10]: 0.71 % ID/g
Brain Mean [10]: 0.64 % ID/g
Muscle Mean [10]: 0.64 % ID/g
Bone Mean [11]: 0.68 % ID/g
Brain Mean [11]: 0.64 % ID/g
Muscle Mean [11]: 0.63 % ID/g
Bone Mean [12]: 0.53 % ID/g
Brain Mean [12]: 0.63 % ID/g
Muscle Mean [12]: 0.61 % ID/g
Bone Mean [13]: 0.82 % ID/g
Brain Mean [13]: 0.63 % ID/g
Muscle Mean [13]: 0.67 % ID/g
Bone Mean [14]: 0.74 % ID/g
Brain Mean [14]: 0.64 % ID/g
Muscle Mean [14]: 0.65 % ID/g
Bone Mean [15]: 0.73 % ID/g
Brain Mean [15]: 0.64 % ID/g
Muscle Mean [15]: 0.68 % ID/g
Bone Mean [16]: 0.72 % ID/g
Brain Mean [16]: 0.65 % ID/g
Muscle Mean [16]: 0.68 % ID/g
Bone Mean [17]: 0.67 % ID/g
Brain Mean [17]: 0.66 % ID/g
Muscle Mean [17]: 0.63 % ID/g
Bone Mean [18]: 0.58 % ID/g
Brain Mean [18]: 0.65 % ID/g
Muscle Mean [18]: 0.68 % ID/g
Bone Mean [19]: 0.63 % ID/g
Brain Mean [19]: 0.65 % ID/g
Muscle Mean [19]: 0.66 % ID/g
Bone Mean [20]: 0.71 % ID/g
Brain Mean [20]: 0.64 % ID/g
Muscle Mean [20]: 0.63 % ID/g
Bone Mean [21]: 0.51 % ID/g
Brain Mean [21]: 0.65 % ID/g
Muscle Mean [21]: 0.69 % ID/g
Bone Mean [22]: 0.70 % ID/g
Brain Mean [22]: 0.65 % ID/g
Muscle Mean [22]: 0.66 % ID/g
Bone Mean [23]: 0.56 % ID/g
Brain Mean [23]: 0.66 % ID/g
Muscle Mean [23]: 0.66 % ID/g
Bone Mean [24]: 0.76 % ID/g
Brain Mean [24]: 0.65 % ID/g
Muscle Mean [24]: 0.68 % ID/g
Bone Mean [25]: 0.77 % ID/g
Brain Mean [25]: 0.65 % ID/g
Muscle Mean [25]: 0.68 % ID/g
Bone Mean [26]: 0.70 % ID/g
Brain Mean [26]: 0.66 % ID/g
Muscle Mean [26]: 0.70 % ID/g
Bone Mean [27]: 0.57 % ID/g
Brain Mean [27]: 0.65 % ID/g
Muscle Mean [27]: 0.67 % ID/g
Bone Mean [28]: 0.59 % ID/g
Brain Mean [28]: 0.66 % ID/g
Muscle Mean [28]: 0.68 % ID/g
Bone Mean [29]: 0.76 % ID/g
Brain Mean [29]: 0.66 % ID/g
Muscle Mean [29]: 0.71 % ID/g
Bone Mean [30]: 0.81 % ID/g
Brain Mean [30]: 0.66 % ID/g
Muscle Mean [30]: 0.66 % ID/g
Bone Mean [31]: 0.76 % ID/g
Brain Mean [31]: 0.66 % ID/g
Muscle Mean [31]: 0.70 % ID/g
Bone Mean (60 minute PET scan, time 0 min): 0 % ID/g
Brain Mean (60 minute PET scan, time 0 min): 0 % ID/g
Muscle Mean (60 minute PET scan, time 0 min): 0 % ID/g
Bone Mean [32]: 0.08 % ID/g
Brain Mean [32]: 0.32 % ID/g
Muscle Mean [32]: 0.02 % ID/g
Bone Mean [33]: 0.97 % ID/g
Brain Mean [33]: 3.67 % ID/g
Muscle Mean [33]: 0.84 % ID/g
Bone Mean [34]: 0.87 % ID/g
Muscle Mean [34]: 0.92 % ID/g
Bone Mean [35]: 0.84 % ID/g
Brain Mean [35]: 1.03 % ID/g
Muscle Mean [35]: 0.91 % ID/g
Bone Mean [36]: 0.84 % ID/g
Brain Mean [36]: 1.00 % ID/g
Muscle Mean [36]: 0.93 % ID/g
Bone Mean [37]: 0.90 % ID/g
Brain Mean [37]: 0.98 % ID/g
Muscle Mean [37]: 0.91 % ID/g
Bone Mean [38]: 0.87 % ID/g
Brain Mean [38]: 0.97 % ID/g
Muscle Mean [38]: 0.93 % ID/g
Bone Mean [39]: 0.85 % ID/g
Brain Mean [39]: 0.97 % ID/g
Muscle Mean [39]: 0.97 % ID/g
Bone Mean [40]: 0.89 % ID/g
Brain Mean [40]: 0.95 % ID/g
Muscle Mean [40]: 0.93 % ID/g
Bone Mean [41]: 0.93 % ID/g
Brain Mean [41]: 0.93 % ID/g
Muscle Mean [41]: 0.89 % ID/g
Bone Mean [42]: 0.88 % ID/g
Brain Mean [42]: 0.93 % ID/g
Muscle Mean [42]: 0.95 % ID/g
Bone Mean [43]: 0.75 % ID/g
Brain Mean [43]: 0.91 % ID/g
Muscle Mean [43]: 0.88 % ID/g
Bone Mean [44]: 0.87 % ID/g
Brain Mean [44]: 0.90 % ID/g
Muscle Mean [44]: 0.91 % ID/g
Bone Mean [45]: 0.86 % ID/g
Brain Mean [45]: 0.89 % ID/g
Muscle Mean [45]: 0.95 % ID/g
Bone Mean [46]: 0.79 % ID/g
Brain Mean [46]: 0.87 % ID/g
Muscle Mean [46]: 0.92 % ID/g
Bone Mean [47]: 0.87 % ID/g
Brain Mean [47]: 0.87 % ID/g
Muscle Mean [47]: 0.95 % ID/g
Bone Mean [48]: 0.86 % ID/g
Brain Mean [48]: 0.86 % ID/g
Muscle Mean [48]: 0.86 % ID/g
Bone Mean [49]: 0.87 % ID/g
Brain Mean [49]: 0.86 % ID/g
Muscle Mean [49]: 0.99 % ID/g
Bone Mean [50]: 0.90 % ID/g
Brain Mean [50]: 0.85 % ID/g
Muscle Mean [50]: 0.91 % ID/g
Bone Mean [51]: 0.92 % ID/g
Brain Mean [51]: 0.85 % ID/g
Muscle Mean [51]: 0.88 % ID/g
Bone Mean [52]: 0.85 % ID/g
Brain Mean [52]: 0.84 % ID/g
Muscle Mean [52]: 0.81 % ID/g
Bone Mean [53]: 0.85 % ID/g
Brain Mean [53]: 0.85 % ID/g
Muscle Mean [53]: 0.96 % ID/g
Bone Mean [54]: 0.80 % ID/g
Brain Mean [54]: 0.84 % ID/g
Muscle Mean [54]: 0.91 % ID/g
Bone Mean [55]: 0.85 % ID/g
Brain Mean [55]: 0.83 % ID/g
Muscle Mean [55]: 0.87 % ID/g
Bone Mean [56]: 0.93 % ID/g
Brain Mean [56]: 0.82 % ID/g
Muscle Mean [56]: 0.91 % ID/g
Bone Mean [57]: 0.84 % ID/g
Brain Mean [57]: 0.82 % ID/g
Muscle Mean [57]: 0.82 % ID/g
Bone Mean [58]: 0.89 % ID/g
Brain Mean [58]: 0.81 % ID/g
Muscle Mean [58]: 0.83 % ID/g
Bone Mean [59]: 0.88 % ID/g
Brain Mean [59]: 0.82 % ID/g
Muscle Mean [59]: 0.88 % ID/g
